Source: US20190062417A1 (SHANGHAI JW INFLINHIX, published 2019)
These are yes or no findings as the source states them, for the method shown. Some binding calls cover weakened binding; strength is not graded here.

By UniProt entry, the sequences of proteins in these tests, tags left out. Where a name states a change or a piece, a line headed by the entry shows the natural chain unless it says otherwise. Residues count along the entry.
UniProt P01375, residues 77-233: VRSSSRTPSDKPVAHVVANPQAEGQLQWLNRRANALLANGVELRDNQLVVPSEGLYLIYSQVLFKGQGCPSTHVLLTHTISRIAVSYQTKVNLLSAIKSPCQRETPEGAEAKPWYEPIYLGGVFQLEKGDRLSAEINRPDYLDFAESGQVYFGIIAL

What was measured:
[1] = target: Tumor necrosis factor alpha (TNF) (UniProt P01375); test: confocal microscopy on L929 cells
[2] = target: TNFa mutant S86F/Y87H (mutant TNF, TNF-mu) (human) (UniProt P01375); test: binding assay of FIG. 6A
[3] = target: Tumor necrosis factor alpha (TNF) (UniProt P01375); test: immunofluorescence microscopy on L929 cells
[4] = target: Tumor necrosis factor alpha (TNF) (UniProt P01375); test: ELISA, TNF coated

Measured: binding

B1: monoclonal antibody 244-12 (antibody, mouse IgG2b, kappa, V domains shown)
VH: QIQLVQSGPELKKPGETVKISCKASGYTFTNYGMNWVKQAPGKGLKWMGWINTYTGEPTYADDFKGRFAFSLETSANTAYLQINNLRNEGMATYFCARHYRYAWFPYWGQGTLVTVSA
VL: DIQMTQSPASLSASVGETVTITCRASGNIHIYLAWYQQKQGKSPQLLVYNAKTLADGVPSRFSGSGSGTQYSLKINSLQPEDFGSYYCQHFWSIPWTFGGGTKLEIKR
notes: also called antibody of the present invention
binds: all assays above
